Values joined by “and” are separate entries in the source; they are usually repeats but may differ in a detail not shown here. Equal entries are not always repeated. In all, about 350,000 compounds went through this assay and about 6,000 (1.7%) were called active. This list was built around the results that the source calls inconclusive (neither active nor inactive); the mix of calls is not that of the screen. No stated cut-off is given here; in the data, active means CPE inhibition above about 20% (passing the limit was not always enough); inconclusive means no clear call, values can overlap the other calls; tested in BHK-21 cells.
Assay: protection of cells from dengue 2 killing – plate reader, single concentration, primary screen (AID 651640);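 further: 0% = median of neutral control wells and 100% = median of positive control wells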
Settings: DENV2-infected cells, cytopathic effect rescue, at 9.99 µM, active compounds read high

SMILES | CPE inhibition
CC(C)NC(=O)N1CC2(C1)[C@H](c1ccccc1)[C@@H](CO)N2C(=O)C1CCCCC1 | inactive: 4.09%
CCN(CC)Cc1cc(C(=O)O)c(-c2ccccc2)o1 | inconclusive: 20.8%
CC(C)NC(=O)Nc1ccc2c(c1)CC(=O)N([C@H](C)CO)C[C@@H](C)[C@H](CN(C)C(=O)NC1CCCCC1)O2 | inconclusive: 30.4%
O=C(CCNS(=O)(=O)c1ccccc1)NNC(=O)COc1ccccc1F | inconclusive: 31.5%
COC(=O)C1=C[C@@H](C(=O)OC)[C@@H]2C3=C(C(=O)[C@]2(CC(C)C)NC(=O)c2ccccc2)[C@H](C)n2c(=O)n(-c4ccccc4)c(=O)n2[C@@H]3C1 | inconclusive: 24%
CN(c1ccc(OCC(=O)N2CCN(c3ccc(F)cc3)CC2)cc1)S(=O)(=O)c1cccs1 | inconclusive: 23.3%
C[C@@H]1CN([C@H](C)CO)C(=O)c2cc(C#CC3(O)CCCC3)cnc2O[C@H]1CN(C)C(=O)C1CCC1 | active: 35.8%
COc1ccc(NC(=O)N[C@H]2CC[C@H](CCNS(=O)(=O)c3ccccc3F)O[C@H]2CO)cc1 | inactive: 8.75%
CC(C)c1ccc(N=Cc2c(O)c3ccccc3oc2=O)cc1 | inconclusive: 36.9%
CC1(C(=O)Nc2ccc3c(c2)OCCO3)CN(S(C)(=O)=O)CC(=O)N1Cc1cccs1 (configuration not stated) | inconclusive: 31.4%
COc1cccc(-c2ccc([C@@H]3[C@H]4CN(CC5CC5)CCCCN4[C@H]3CO)cc2)c1 | active: 58.4%
C[C@H](CO)N1C[C@H](C)[C@@H](CN(C)S(=O)(=O)c2ccc(Oc3ccccc3)cc2)OCc2cnnn2CCCC1=O | inactive: -5.26% and inactive: -10.5% and inactive: 0.42%
CCc1cccc(C)c1NC(=O)COC(=O)C1CC(=O)N(CCc2ccc(OC)c(OC)c2)C1 (configuration not stated) | inconclusive: 57.9%
O=C(Oc1c(CN2CCOCC2)cc(Cl)c2cccnc12)c1ccccc1Cl | inactive: 1.23%
[O-]/C(=C(\C(=S)NCCN1CCOCC1)[n+]1ccccc1)c1ccc(Cl)s1 | inactive: 1.37%
O=C(Cn1nc(-c2ccc(Cl)cc2)ccc1=O)NCC1CCCO1 (configuration not stated) | inactive: -7.35%
C[C@H]1CCCCO[C@H](CN(C)C(=O)Nc2ccc3c(c2)OCO3)[C@@H](C)CN([C@@H](C)CO)C(=O)c2cc(NS(=O)(=O)c3ccc(Cl)cc3)ccc2O1 | active: 51.8%
CCCNC(=O)N(C)C[C@@H]1Oc2cc(-c3cccnc3)ccc2S(=O)(=O)N([C@@H](C)CO)C[C@H]1C | inactive: -5.36%
C[C@@H]1CN([C@@H](C)CO)C(=O)c2cc(C3=CCCCC3)cnc2O[C@@H]1CN(C)C(=O)Nc1ccccc1 | inactive: 0.735%
O=C(C1CCOCC1)N1CC(=O)N2[C@H](CO)[C@H](c3ccc(-c4ccccc4F)cc3)[C@H]2C1 | inactive: 4.49%
COC(=O)[C@]12C[C@H](CC(=O)N3CCOCC3)C(=O)N(Cc3ccccc3)C1=C[C@H](C(C)C)O[C@@H]2C1CC1 | inconclusive: 35.6%
O=C(CCNS(=O)(=O)c1ccccc1C(F)(F)F)N1CCN(C(c2ccccc2)c2ccccc2)CC1 | active: 91.5%
O=C(C[C@@H]1CC[C@@H](NS(=O)(=O)c2ccc(F)cc2)[C@@H](CO)O1)N1CCC(Cc2ccccc2)CC1 | inactive: 7.24%

SMILES | CPE inhibition
C/C=C/c1ccc(C2[C@@H]3CN(S(=O)(=O)c4cn(C)cn4)C[C@H]2N3)cc1 (some centres not stated) | inconclusive: 51.6% and inconclusive: 55.2%
COc1ccc2c3c([nH]c2c1)[C@@H](CO)N(C(=O)c1ccc(F)cc1)CC31CN(C(=O)Nc2cccc(F)c2)C1 | inconclusive: 23.9%
Cc1ccc(S(=O)(=O)Nc2ccc3c(c2)C(=O)N([C@H](C)CO)C[C@@H](C)[C@@H](CN(C)C(=O)c2ccncc2)OCCCC[C@@H](C)O3)cc1 | inconclusive: 29%
C/C=C/C=C/C(=O)N1CC2(CC(c3cccc(NC(=O)/C=C/C)c3)=NO2)C[C@@H]1C(N)=O (some centres not stated) | active: 29.4%
O=C(Nc1ccccc1)Nc1ccc2c(c1)[C@@H]1C[C@H](CC(=O)N3CCCCC3)O[C@@H](CO)[C@@H]1O2 | inconclusive: 24.8%
CN1C(=O)c2cc(NC(=O)c3ccccc3)ccc2OC[C@@H]2O[C@@H](CC(=O)NC3CCCC3)CC[C@H]21 | inconclusive: 77.8%
COc1ccccc1N1CCN(C(=O)CCCn2c(=O)[nH]c3ccsc3c2=O)CC1 | inconclusive: 34%
COc1ccccc1CCNC(=O)C(C)n1nc(C)c2c(C)n(-c3ccccc3)nc2c1=O (configuration not stated) | inconclusive: 35%
CCCCCCCCN1C(=O)[C@H](CC(=O)N2CCSCC2)C[C@@]2(C(=O)OC)CC(C)(C)CC=C12 | inconclusive: 28.6%
CCCCC1O[C@@H](C)[C@@H]2CN3CCc4c([nH]c5ccccc45)[C@@H]3C[C@@H]2N1C (some centres not stated) | inconclusive: 46.7%
C[C@H](CO)N1C[C@H](C)[C@H](CN(C)Cc2ccc(C(=O)O)cc2)Oc2ccc(NC(=O)Cc3cn(C)c4ccccc34)cc2C1=O | active: 70.3%
CCN(CC)CCN(C(=O)c1ccc(N2C(=O)CCC2=O)cc1)c1nc2cc3c(cc2s1)OCCO3 | inactive: 5.5%
C#CCOC(=O)C[N+](C)(C)C/C=C/c1ccccc1 | inconclusive: 31.8%
O=C(CSc1nnc(CNC(=O)c2cccc(C(F)(F)F)c2)o1)NC1CCCCC1 | inconclusive: 23.6%
C[C@H]1CN([C@@H](C)CO)C(=O)c2cc(NC(=O)CCCN(C)C)ccc2O[C@H]1CN(C)S(=O)(=O)c1cn(C)cn1 | inactive: 2.16%
Cc1cccc(NC(=O)c2cccc(NC(=O)c3ccccc3)c2)n1 | inconclusive: 46.5%
COC(=O)C1=C(C)N(Cc2ccccc2C(F)(F)F)C(=NCc2ccccc2)NC1CCc1ccccc1 (configuration not stated) | active: 90.7%
Nc1ccn([C@H]2CS[C@@H](CO)O2)c(=O)n1 | active: 26.6%
C[C@@H]1CN([C@@H](C)CO)C(=O)c2cc(NS(=O)(=O)c3cccs3)ccc2O[C@H]1CN(C)Cc1ccc(C(=O)Nc2ccccc2N)cc1 | inconclusive: 25.6%
CC(C)(C)CC(=O)Nc1ccccc1N1CCN(c2ccccc2)CC1 | inactive: -1.74%
C[C@@H]1CN([C@H](C)CO)C(=O)c2cc(NS(=O)(=O)c3ccc(F)cc3)ccc2O[C@H]1CN(C)S(=O)(=O)c1cn(C)cn1 | inactive: 12.1%
COc1ccc(-c2ccc([C@H]3[C@@H](CO)N4CCCCN(CC5CCOCC5)C[C@H]34)cc2)cc1 | active: 33.1%
OCC1OC(n2cnc3c(SCc4ccccc4)ncnc32)C(O)C1O (configuration not stated) | active: 75.2%

Laid out differently: results already given.
O=C(Nc1ccccc1)Nc1ccc2c(c1)[C@@H]1C[C@H](CC(=O)N3CCCCC3)O[C@@H](CO)[C@@H]1O2
  CPE inhibition: inconclusive: 24.8%
C#CCOC(=O)C[N+](C)(C)C/C=C/c1ccccc1
  CPE inhibition: inconclusive: 31.8%
C[C@@H]1CN([C@@H](C)CO)C(=O)c2cc(NS(=O)(=O)c3cccs3)ccc2O[C@H]1CN(C)Cc1ccc(C(=O)Nc2ccccc2N)cc1
  CPE inhibition: inconclusive: 25.6%

Next entries.

SMILES | CPE inhibition
Cc1noc(C)c1S(=O)(=O)N(C)C[C@H]1OCCCC[C@H](C)Oc2ccc(NS(=O)(=O)c3ccc(Cl)cc3)cc2C(=O)N([C@H](C)CO)C[C@@H]1C | inconclusive: 29.5%
CCN(CC(=O)Nc1c(F)cccc1F)C(=O)CSc1nc(C)cc(C)n1 | inconclusive: 29.8%
C[C@H](CO)N1C[C@H](C)[C@@H](CN(C)S(=O)(=O)c2ccc(Cl)cc2)Oc2ccc(NC(=O)C3CC3)cc2CC1=O | active: 30.4%
O=C(COC(=O)C1=COCCO1)NCc1ccc(F)cc1 | inconclusive: 41.2%
Cc1ccc(-c2nc(SC(C)C(=O)NC3CC3)n[nH]2)cc1 (configuration not stated) | inconclusive: 35.2%
C[C@H](CO)N1C[C@H](C)[C@H](CN(C)C(=O)c2ccccc2)OCCCC[C@H](C)Oc2ccc(NC(=O)CCCCCC(=O)Nc3ccccc3N)cc2C1=O | inactive: 13.2%
C[C@H]1CN([C@@H](C)CO)C(=O)c2cccc(NC(=O)c3cnccn3)c2O[C@H]1CN(C)C(=O)Nc1ccc2c(c1)OCO2 | inconclusive: 37.7%
Cc1csc(SCC(=O)Nc2ccc(C)c(F)c2)n1 | inconclusive: 48.5%
CN(c1ccc(OCC(=O)OCC(=O)Nc2ccc([N+](=O)[O-])cc2)cc1)S(=O)(=O)c1cccs1 | inconclusive: 46.8%
C[C@@H]1CN([C@H](C)CO)C(=O)c2cccc(NC(=O)c3cnccn3)c2O[C@@H]1CN(C)S(=O)(=O)c1cccs1 | inconclusive: 21%
CO[C@@H]1CN(C)C(=O)c2ccc(NS(=O)(=O)c3ccccc3F)cc2OC[C@H](C)NC[C@@H]1C | inconclusive: 21.9%
COc1ccc(CN2CCC2(C)C(=O)Nc2cnc3ccccc3c2)c2ccccc12 (configuration not stated) | inconclusive: 27%
C[C@H]1CN([C@@H](C)CO)C(=O)c2cc(NC(=O)Cc3ccccc3)ccc2O[C@@H]1CN(C)S(=O)(=O)c1cccs1 | inactive: -11.7%
COCCNC(=O)[C@H](C)[C@H]1C[C@]1(C)[C@H](NC(=O)OCc1ccccc1)c1ccccc1 | inconclusive: 20.7%
O=C(N/N=C/c1c(F)c(F)c(F)c(F)c1F)c1ccc(Cn2cc(Br)cn2)o1 | inconclusive: 51.3%
COc1cccc2cc(C(=O)NCc3ccc(F)cc3)c(=N)oc12 | inconclusive: 27.1%
C[C@@H]1CCCCO[C@H](CN(C)C(=O)C2CCCCC2)[C@@H](C)CN([C@H](C)CO)C(=O)c2cc(NC(=O)Nc3cccc4ccccc34)ccc2O1 | inactive: -3.32%
CC1(C)Oc2ccc(C(=O)Nc3ccccc3)cc2N(CC#N)C1=O | inconclusive: 35.6%
Cc1ccc(CNS(=O)(=O)c2c(C)n(C)c(=O)n(C)c2=O)cc1 | inconclusive: 22%
Cc1cccc2c1-c1sc(C(=O)NCCCN3CCC(C)CC3)cc1CO2 | inactive: 2.53%
C/C=C/c1ccc([C@H]2[C@H](CO)N3C(=O)CN(Cc4ccc(C)cc4)C[C@@H]23)cc1 | inactive: -2.95%

From PubChem BioAssay AID651640 (Broad Institute, 2012)
